In PubChem BioAssay AID485314 (National Center for Advancing Translational Sciences (NCATS), 2010):
In all, about 340,000 compounds went through this assay and about 4,500 (1.3%) were called active. The inconclusive results got no clear call from the source; some entries with a clear call stand among them for comparison. Calls come from the whole dose curve; as a rule, active = well fitted inhibition curve with a large enough effect; inconclusive = small, poorly fitted or top-dose-only effect, or another doubt; inactive = no such curve, though single readings can be large or run the other way. A potency beside an inconclusive call is a rough fit, not a confirmed value.

target: DNA polymerase beta (Homo sapiens) (UniProt P06746); assay: qHTS Assay for Inhibitors of DNA Polymerase Beta; details: Pol beta primer extension/strand displacement, fluorescence kinetic; activity change, negative = inhibition: at 114 µM (top of the series)
Procedure, shortened: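 Curves were derived by four-parameter Hill fits of normalized qHTS data. The kinetic fluorescent primer-extension read was taken at 0 and 10 min after 50 nM substrate, following a 15 min room-temperature preincubation of 10 nM enzyme with compounds.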
% is set by controls: 0 for no effect and ±100 for the full control effect; potency is the fitted concentration of half-maximal effect.

SMILES | activity change, negative = inhibition | Potency
CC1CCc2sc(C(=O)N/N=C/c3ccc(O)cc3)cc2C1 (stereo unspecified) | inactive: -11.8% | 
Cc1ccc(C)n1C(CC(=O)O)c1ccc(C#N)cc1 (stereo unspecified) | inactive: -1.69% | 
Cc1ccc2nc(/C(C#N)=C/c3ccc(-c4ccccc4C(=O)O)o3)[nH]c2c1 |  | active: 22.4 µM
O=C(O)CCCN1C(=O)/C(=C/c2ccncc2)SC1=S | inactive: -3.42% | 
Cc1ccc(/C=c2\sc3nc(-c4ccco4)nn3c2=O)o1 |  | active: 28.2 µM
O=C(/C=C\c1ccco1)Nc1nc(-c2ccccc2)cs1 |  | inconclusive: 31.6 µM [inhibitor, single point]
COc1cccc2cc(-c3nnc(Nc4ccccc4C)s3)c(=O)oc12 |  | inconclusive: 100 µM [inhibitor, single point]
OCc1ccnc2c(O)cccc12 | inactive: 11.7% | 
Cc1cccc(CNC(=O)c2ccc(-c3nc(CS(=O)(=O)c4ccccc4)c(C)o3)cc2)c1 |  | inconclusive: 70.8 µM [inhibitor, single point]
COc1ccc2[nH]cc(/C=C(/C#N)S(=O)(=O)c3ccccc3)c2c1 |  | inconclusive: 0.794 µM [inhibitor, full curve, poor fit]
COc1cc(-c2noc(C)c2/C=C/c2ccc(C(=O)O)cc2)cc(OC)c1OC |  | active: 14.1 µM
COc1ccc(OCC(=O)Nc2cccc(-c3nc4ccccc4[nH]3)c2)cc1 |  | inconclusive: 39.8 µM [inhibitor, partial curve, poor fit]
Cc1cccc(-c2c3c(=O)n(C)c(=O)n(C)c3cn2C(C)C)c1 |  | inconclusive: 79.4 µM [inhibitor, single point]
Cc1nc(-c2ccc(-n3nncc3-c3ccco3)cc2)cs1 |  | inconclusive: 14.1 µM [inhibitor, partial curve, poor fit]
O=C(CSc1ncc(-c2ccc(F)cc2)[nH]1)Nc1cccc(O)c1 |  | inconclusive: 44.7 µM [inhibitor, full curve, poor fit]
Cc1[nH]ccc(=O)c1OCc1ccccc1 |  | inconclusive: 89.1 µM [inhibitor, partial curve, poor fit]
CC(C)N(Cc1ccccc1)C(=O)COC(=O)c1ccc2c(c1)OCCO2 |  | inconclusive: 0.1 µM [inhibitor, full curve, poor fit]
COc1ccccc1OCC(=O)Nc1ccc2c(c1)OCO2 |  | active: 50.1 µM
CCOC(=O)C1=C(c2ccccc2)N=c2s/c(=C\c3ccco3)c(=O)n2C1c1cccs1 (stereo unspecified) |  | active: 10 µM
Cc1c(NC(=O)c2ccc3nsnc3c2)cccc1[N+](=O)[O-] | inactive: 15.4% | 
COc1cc2oc(-c3ccc(O)cc3)cc(=O)c2c(O)c1OC |  | inconclusive: 89.1 µM [inhibitor, single point]
COc1ccc2oc(=O)c(C(=O)NCCc3c(C)[nH]c4c(C)cccc34)cc2c1 |  | inconclusive: 28.2 µM [inhibitor, single point]
Cc1ccc(Sc2c(C=O)c3ccccc3n2C)cc1 |  | inconclusive: 35.5 µM [inhibitor, single point]
CN(CCCNC(=O)C1CCN(S(=O)(=O)c2cccc3nsnc23)CC1)Cc1ccccc1 |  | inconclusive: 5.62 µM [inhibitor, full curve, poor fit]

SMILES | activity change, negative = inhibition | Potency
CCOC(=O)c1cnc(-n2nc(C)cc2C)nc1NCc1ccccc1 |  | inconclusive: 28.2 µM [inhibitor, full curve, poor fit]
O=c1/c(=C\c2cc([N+](=O)[O-])cc([N+](=O)[O-])c2O)sc2nc3ccccc3n12 |  | active: 17.8 µM
CCOC(=O)/C(C#N)=C\c1ccc(N2CCN(C/C=C/c3ccccc3)CC2)cc1 |  | inconclusive: 56.2 µM [inhibitor, single point]
O=C(CCCNC(=O)c1ccc(Cl)cc1)NCc1ccc(F)cc1 |  | inconclusive: 56.2 µM [inhibitor, partial curve, poor fit]
Cc1ccc([N+](=O)[O-])cc1NC(=O)Nc1ccc(S(N)(=O)=O)cc1 |  | inconclusive: 12.6 µM [inhibitor, partial curve]
Cc1cc(C)cc(NC(=O)Nc2ccc(-n3ccc(C(F)(F)F)n3)cc2)c1 | inactive: -1.93% | 
O=C(Nc1ccccc1)c1ccc2nc(-c3ccco3)c(-c3ccco3)nc2c1 |  | active: 20 µM
COC(=O)C1CCN(Cc2cn(-c3ccccc3)nc2-c2ccc3c(c2)OCO3)CC1 |  | inconclusive: 63.1 µM [inhibitor, single point]
O=C(Nc1nc(-c2cc3ccccc3oc2=O)cs1)c1ccc(Br)o1 |  | inconclusive: 8.91 µM [inhibitor, partial curve]
CCn1c(SCC(=O)NC(C)(C)C)nc(O)cc1=O |  | inconclusive: 20 µM [inhibitor, partial curve]
NS(=O)(=O)c1ccc(CCNC(=O)c2ccccc2OCc2ccc(F)cc2)cc1 |  | inconclusive: 89.1 µM [inhibitor, single point]
CC(=O)Oc1cccc(C(=O)Nc2ccc3c(c2)C(=O)N(CC2CCCO2)C3=O)c1 (stereo unspecified) |  | inconclusive: 28.2 µM [inhibitor, single point]
CCCCn1nnnc1SCC(=O)NCc1ccccc1 |  | inconclusive: 0.112 µM [inhibitor, full curve, poor fit]
CN(C(=O)CSc1cn(CC(=O)N2CCCCCC2)c2ccccc12)c1ccccc1 | inactive: -0.7% | 
COc1ccc(C(=O)Nc2ccc(OCC(=O)N3CCOCC3)cc2)c(OC)c1OC | inactive: 1.61% | 
CC(NC(=O)c1ccc(Cl)cc1)C1CC2CCC1C2 (stereo unspecified) |  | inconclusive: 89.1 µM [inhibitor, single point]
CC(=O)Nc1ccc(NC(=O)CSc2ccccn2)cc1 | inactive: 4.75% | 
CCc1ccccc1NC(=O)CSc1nnc(-c2cc(OC)c(OC)c(OC)c2)o1 |  | inconclusive: 100 µM [inhibitor, single point]
O=c1[nH]c2ccc(N=Cc3c(O)ccc4cc(Br)ccc34)cc2[nH]1 |  | inconclusive: 1.78 µM [inhibitor, partial curve, poor fit]
O=c1c(-c2ccccc2)coc2cc(O)ccc12 |  | inconclusive: 89.1 µM [inhibitor, single point]
CC(=O)Nc1ccc(NC2=C/C(=N/S(=O)(=O)c3cccs3)c3ccccc3C2=O)cc1 |  | inconclusive: 2.24 µM [inhibitor, full curve]
Cc1occc1C(=O)NCc1nc(-c2ccc(Cl)cc2)no1 | inactive: 0.62% | 
COc1ccc(OC)c(NC(=O)CN2C(=O)CC(c3ccco3)Sc3ccccc32)c1 (stereo unspecified) |  | inconclusive: 39.8 µM [inhibitor, single point]
O=C(Nc1nc2ccsc2c(=O)s1)c1ccco1 | inconclusive: -74.3% [inhibitor] | 

Copied from the list.
Value of O=C(Nc1nc(-c2cc3ccccc3oc2=O)cs1)c1ccc(Br)o1 under Potency: inconclusive: 8.91 µM [inhibitor, partial curve]
Value of CCCCn1nnnc1SCC(=O)NCc1ccccc1 under Potency: inconclusive: 0.112 µM [inhibitor, full curve, poor fit]
Value of CCc1ccccc1NC(=O)CSc1nnc(-c2cc(OC)c(OC)c(OC)c2)o1 under Potency: inconclusive: 100 µM [inhibitor, single point]

(list continues)

SMILES | activity change, negative = inhibition | Potency
CCOC(=O)C1CCN(c2nc(C)cc(C)c2C#N)CC1 | inactive: 0.663% | 
CCOc1ccc(NC(=O)Nc2ccc3c(c2)CCC3)cc1 |  | active: 25.1 µM
Cc1ccc(C2CCN(C(=O)c3cnn(-c4ccccc4Cl)c3C3CCN(C(=O)OC(C)(C)C)CC3)C2)cc1 (stereo unspecified) | inactive: 2.89% | 
CCCN(CC(=O)Nc1ccc(Cl)cc1Cl)C(=O)c1ccc(=O)[nH]c1 |  | inconclusive: 4.47 µM [inhibitor, single point]
NNC(=O)c1csc(Cc2c(Cl)sc3ccc(Cl)cc23)n1 |  | inconclusive: 7.94 µM [inhibitor, partial curve, poor fit]
Cc1ccc2[nH]cc(C(c3ccccc3)c3cccs3)c2c1 (stereo unspecified) | inactive: 5.04% | 
COc1cccc(OC)c1-c1nn2c(-c3ccco3)nnc2s1 |  | inconclusive: 20 µM [inhibitor, full curve]
O=C(OCCN1C(=O)c2cccc3c(N4CCOCC4)ccc(c23)C1=O)c1ccc(Cl)cc1 |  | inconclusive: 39.8 µM [inhibitor, single point]
CCN1C(=O)/C(=C\N2CCN(c3ccccc3)CC2)SC1=S |  | inconclusive: 79.4 µM [inhibitor, single point]
Cc1ccn2c(C(=O)NNC(=O)Nc3ccc(Cl)cc3)c(C)nc2c1 | inconclusive: -30.6% [inhibitor] | 
CC1=NNC(=O)C1Cc1ccccc1C (stereo unspecified) | inactive: -17.8% | 
COc1ccc(Nc2ccc3cc(S(=O)(=O)N4CCCC4)ccc3n2)cc1Cl |  | inconclusive: 63.1 µM [inhibitor, single point]
Cc1noc(NS(=O)(=O)c2ccc(N/C=C\C(=O)c3cccc4ccccc34)cc2)c1C |  | inconclusive: 50.1 µM [inhibitor, partial curve]
N/C(CS(=O)(=O)c1ccccn1)=N\OC(=O)c1ccccc1Cl |  | inconclusive: 100 µM [inhibitor, single point]
O=C(NCc1csc(-c2cccs2)n1)Nc1cccc(Cl)c1 |  | inconclusive: 35.5 µM [inhibitor, partial curve]
Cc1cccc(NC(=O)Cn2cc(S(=O)(=O)c3ccc(F)cc3)c(=O)c3cc4c(cc32)OCO4)c1 | inactive: 8.05% | 
CCCCOc1ccc(CC2CCC(=O)NC2=O)cc1 (stereo unspecified) |  | inconclusive: 89.1 µM [inhibitor, single point]
Cc1cc(C)cc(NC(=O)CSCn2nnc3c(=O)[nH]c(Cc4ccc(F)cc4)nc32)c1 |  | active: 39.8 µM
CCCS(=O)(=O)c1nc(S(=O)(=O)c2ccc(C)cc2)c(N2CCc3ccccc3C2)s1 |  | inconclusive: 25.1 µM [inhibitor, full curve, poor fit]
O=C1/C(=C\c2cc([N+](=O)[O-])ccc2O)SC(=S)N1Cc1ccc(Cl)cc1 |  | active: 3.16 µM
O=C(O)CSc1ncnc2nc[nH]c12 | inactive: 12.5% | 
C=CCn1c(O)c(N=NC(=O)CNC(=O)/C=C/c2ccco2)c2ccccc21 |  | active: 14.1 µM
Cc1cc(C)c2nc(-c3ccco3)cc(C(=O)O)c2c1 |  | active: 7.08 µM
